{"source": "PubChem BioAssay AID540303", "about": "(National Center for Advancing Translational Sciences (NCATS), 2011)", "note": "In all, about 330,000 compounds went through this assay and about 1,000 (0.3%) were called active. Inconclusive means that the source gave no clear call. Such entries were picked first, then a sample of the others. Calls come from the whole dose curve; as a rule, active = well fitted inhibition curve with a large enough effect; inconclusive = small, poorly fitted or top-dose-only effect; inactive = no such curve, though single readings can be large or run the other way; tested in mouse RAW 264.7 cells. Potencies of inconclusive entries are doubtful fits and often do not repeat. % is set by controls: 0 for no effect and ±100 for the full control effect; potency is the fitted concentration of half-maximal effect."}
{"assay": "qHTS for Inhibitors of Cell Surface uPA Generation; note: nearly all actives have a fitted effect of over 55% in size", "conditions": "cell surface uPA generation assay; series mostly up to 38.3 µM; activity change, negative = inhibition: at the top concentration", "procedure,_shortened": "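Intracellular ATP by ATPlite luminescence serves as read-out: inhibited cell-surface uPA generation prevents LF translocation, preserving ATP. Murine RAW 264.7 macrophages were treated 24 h at 37 C with five-fold serial dilutions, up to 38.3 uM final.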"}
{"smiles": "COc1ccc(-c2nnc(NC(=O)c3c(OC)cccc3OC)s2)cc1", "Potency": "inconclusive: 11.2 µM [inhibitor, single point]"}
{"smiles": "CC1Cc2cc(S(=O)(=O)N3CCN(c4ccc(Cl)cc4)CC3)ccc2N1C(=O)C1CC1", "note": "(stereo not given)", "activity change, negative = inhibition": "inactive: -1.74%"}
{"smiles": "O=C(NCc1ccco1)C1CC(c2ccccc2C(F)(F)F)=NO1", "note": "(stereo not given)", "Potency": "inconclusive: 12.6 µM [inhibitor, single point]"}
{"smiles": "CCN1CCN(c2ccc(NC(=O)c3cc4ccccc4cc3OC)cc2C)CC1", "Potency": "active: 11.2 µM"}
{"smiles": "O=[N+]([O-])c1nn(-c2ccc3c(c2)OCCO3)n(O)c1=NC1CCN(Cc2ccccc2)CC1", "Potency": "active: 4.47 µM"}
{"smiles": "Nc1c(-c2ccsc2)cnc2ncnn12", "activity change, negative = inhibition": "inactive: -0.324%"}
{"smiles": "CCc1ccc(Nc2n[n+](-c3ccccc3)c(-c3ccc(OCc4ccccc4)cc3)s2)cc1", "Potency": "inconclusive: 7.08 µM [inhibitor, single point]"}
{"smiles": "O=NNc1nc2ccccc2n1Cc1ccccc1", "Potency": "inconclusive: 11.2 µM [inhibitor, single point]"}
{"smiles": "COc1ccccc1C(=O)NC(=O)CSc1nnc(N)s1", "activity change, negative = inhibition": "inactive: -5.84%"}
{"smiles": "Cc1nc(Nc2nc(CSc3nc4ccccc4[nH]3)cc(=O)[nH]2)nc2ccccc12", "Potency": "inconclusive: 28.2 µM [inhibitor, partial curve, poor fit]"}
{"smiles": "CC(c1ccccc1)N1C(=O)/C(=C/c2ccncc2)SC1=S", "note": "(stereo not given)", "Potency": "inconclusive: 7.94 µM [inhibitor, partial curve, poor fit]"}
{"smiles": "COCCCNC(=O)C1CCC(CNS(=O)(=O)c2ccc3c(c2)N(C(C)=O)CCO3)CC1", "note": "(stereo not given)", "Potency": "inconclusive: 12.6 µM [inhibitor, single point]"}
{"smiles": "Oc1ccc(Cl)cc1N=Nc1ccccc1", "activity change, negative = inhibition": "inactive: 14.2%"}
{"smiles": "O=C(Nc1ccccc1)C1=C[C@H](c2csc3ccccc23)C[C@H](OCc2ccc(CO)cc2)O1", "Potency": "inconclusive: 28.2 µM [inhibitor, single point]"}
{"smiles": "CC1C(=O)C(C)C(c2ccc(Br)cc2)NC1c1ccc(Br)cc1", "note": "(stereo not given)", "Potency": "inconclusive: 22.4 µM [inhibitor, partial curve, poor fit]"}
{"smiles": "O=C(Cc1cccs1)N/N=C\\c1ccc([N+](=O)[O-])s1", "Potency": "inconclusive: 6.31 µM [inhibitor, partial curve, poor fit]"}
{"smiles": "COC(=O)c1ccc(C(=O)N2CCCC(Nc3ccc(C(C)C)cc3)C2)nc1", "note": "(stereo not given)", "activity change, negative = inhibition": "inactive: 2.96%"}
{"smiles": "CC(=O)O[C@H]1CC[C@@]2(C)C(CCC3C2CC[C@]2(C)OC(=O)CCC32)C1", "note": "(stereo not given in full)", "activity change, negative = inhibition": "inactive: 0.506%"}
{"smiles": "c1ccc2c(Nc3nc(-c4ccncc4)nc4ccccc34)cccc2c1", "activity change, negative = inhibition": "inactive: 3.37%"}
{"smiles": "CCN1C(=O)c2cccc3c(N)ccc1c23", "Potency": "inconclusive: 2.82 µM [inhibitor, full curve, poor fit]"}
